Reference: patent publication US20240393292A1, “ALLERGY ANTIGEN AND EPITOPE THEREOF” (HOYU CO., LTD., priority 2019, published 2024)
At least one peptide structure holds a part that was inferred or is arguable (an end, a ring closure or a residue). Residues, ends and D or L forms follow the SMILES beside them. *: point of attachment. Biotin = O=C1N[C@H]2[C@H](CS[C@H]2CCCCC(=O)*)N1

System: IgE antibodies from patients having allergies to each food
Assay: Confirmation of epitope cross-reactivity by ELISA with biotinylated peptides
Assay type: binding, human
Conditions: synthetic sequence
Source text: Amino acids other than amino acids important for maintaining binding to IgE antibodies, in each of the epitope sequences found in the wheat proteins in Table 2 were defined as any given amino acid (X). NCBI was searched for proteins having the key sequences having the amino acid residues X in cooking ingredient allergens carried in common by each of the patients. As a result, an amino acid sequence contained in a sequence in each food described in the column “Food with which cross-reactivity was confirmed” in Table 2 was identified as one example.
The binding activity of peptides comprising the amino acid sequences described in the column “Synthesis sequence” and the rightmost column “SEQ ID NO” of Table 2 against IgE antibodies from patients having allergies to each food described in the column “Food with which cross-reactivity was confirmed” in Table 2 was confirmed by ELISA. The peptides were synthesized such that the peptides were N-terminally biotinylated by the Fmoc method.
To be specific, ELISA was carried out according to the following procedure. • (1) The concentrations of the biotinylated peptides were adjusted to 10 μg/mL with PBST (0.1% Tween 20). • (2) Each peptide solution was added at 20 μL to each well of a 384-well plate coated with streptavidin, and shaken at room temperature for one hour. […] Absorbance at 450 nm was measured.
Peptides having these amino acid sequences were prepared by the same procedure as described in Example 4 (A), and the presence or absence of binding thereto of IgE antibodies present in the serum of an allergic patient and the serum of a nonallergic subject was measured. The serum of two nonallergic subjects was measured, and values obtained by dividing the measurement values by an average value thereof were used.
The bar graph of each figure depicts “absorbance of the allergic patient/absorbance of the nonallergic patient (healthy subject)”. […]

[1] = Graph No. 4, epitope of patient G1

| SMILES | Food in which cross-reactivity was confirmed [1] | Food in which cross-reactivity was confirmed (Graph No. 3, epitope of patient P8) |
| --- | --- | --- |
| CC[C@H](C)[C@H](NC(=O)[C@H](C)NC(=O)[C@@H](NC(=O)[C@H](CCCNC(=N)N)NC(=O)[C@H](Cc1ccc(O)cc1)NC(=O)[C@H](CC(N)=O)NC(=O)[C@H](CCCNC(=N)N)NC(=O)CCCC[C@@H]1SC[C@@H]2NC(=O)N[C@@H]21)C(C)C)C(=O)O [compound 2921] (Biotin-RNYRVAI-OH) | Wheat |  |
| CC[C@H](C)[C@H](NC(=O)CNC(=O)[C@H](CCCNC(=N)N)NC(=O)[C@H](CC(C)C)NC(=O)[C@H](CC(C)C)NC(=O)[C@H](CCCNC(=N)N)NC(=O)CCCC[C@@H]1SC[C@@H]2NC(=O)N[C@@H]21)C(=O)N[C@@H](CCCNC(=N)N)C(=O)N[C@@H](CC(N)=O)C(=O)N[C@@H](Cc1ccc(O)cc1)C(=O)O [compound 2917] (Biotin-RLLRGIRNY-OH) |  | Wheat |
| CC[C@H](C)[C@H](NC(=O)[C@@H](NC(=O)[C@H](CCCNC(=N)N)NC(=O)[C@H](CCCCN)NC(=O)[C@H](CC(=O)O)NC(=O)CCCC[C@@H]1SC[C@@H]2NC(=O)N[C@@H]21)C(C)C)C(=O)N[C@@H](CCC(=O)O)C(=O)N[C@@H](CCCNC(=N)N)C(=O)N[C@@H](Cc1ccccc1)C(=O)N[C@@H](CCC(=O)O)C(=O)N[C@@H](CCCCN)C(=O)O [compound 2925] (Biotin-DKRVIERFEK-OH) | Wheat |  |
